This data set has as its target T1, Lin28b (UniProt Q6ZN17).
T1 sequence (looked up, limits assumed): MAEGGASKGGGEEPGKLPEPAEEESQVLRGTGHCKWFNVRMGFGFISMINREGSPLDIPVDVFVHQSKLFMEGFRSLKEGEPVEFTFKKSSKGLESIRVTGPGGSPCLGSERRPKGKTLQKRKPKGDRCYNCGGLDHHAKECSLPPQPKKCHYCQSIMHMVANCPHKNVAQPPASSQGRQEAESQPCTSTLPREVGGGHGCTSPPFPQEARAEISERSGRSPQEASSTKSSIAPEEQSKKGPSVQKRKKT
In words: single-molecule immobilization. Conditions: DNA held on surface via His-Lin28b and biotin-anti-His antibody; amino-C6-dT; 50 mM Tris-HCl pH 8.0, 100 mM NaCl (10-200 mM in salt series); temperature not given; TIRF smFRET, 100 ms; recombinant protein; protein details: His (pET28-a); label: Cy5; folded or branched DNA.

For at least one entry, the source does not settle the construct or the ends of the probe. At least one verdict was read from the data and is not stated in words by the source. Protein sequences can lack the tags named with them.

For the sequence “TTTTTTTTTTTTTTTTTTTACTACCTCTTTTTTTTTTTTTTTTTTTTGCGCTATGCGGTTGTATAGTTTTAGGGTCACACCCACCACTGGGAGATAACTATACAATCGCATAGCGCTTTTTTTTTTTTTTTTTTTTTTTTTTTTTTTTTACTACCTCTTTTTTTTTTTTTTTTT [Lin28 double target]”, the binding result is recorded as “binds”.
